This is one part of the list.
What was measured:
Assay in all cases: log2 fold change, soluble protein after heating vs DMSO (PISA); higher = thermal stabilisation; K562 lysate, 10 uM; active = over 0.2 and 3.5 SD of the protein, either way, in both replicates (recomputed)
[1] = compound: C=CC(=O)N1CCC[C@@H](n2nc(-c3ccc(Oc4ccccc4)cc3)c3c(N)ncnc32)C1 [ibrutinib]
Procedure, shortened: (§1)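 Soluble protein was defined as the supernatant remaining after 21,000xg for 90 min, following pooling of heated aliquots and adjustment to 0.5% NP-40 at 4°C. Before that, crude K562 extract at 1 mg/mL protein in PBS pH 7.4 with 1 mM MgCl2 was treated with 10 μM compound for 30 min and heated for 3 min across 48°C-58°C. Quantification used TMTpro 16plex LC-MS/MS with channel sums equalised, and values are log-two fold changes in thermal stability relative to solvent controls from duplicates.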

Sequences of proteins named here, by UniProt entry; tags and fusion partners are left off. A change or cut given only in a name is not applied to a line headed by its entry.
UniProt Q96BR6: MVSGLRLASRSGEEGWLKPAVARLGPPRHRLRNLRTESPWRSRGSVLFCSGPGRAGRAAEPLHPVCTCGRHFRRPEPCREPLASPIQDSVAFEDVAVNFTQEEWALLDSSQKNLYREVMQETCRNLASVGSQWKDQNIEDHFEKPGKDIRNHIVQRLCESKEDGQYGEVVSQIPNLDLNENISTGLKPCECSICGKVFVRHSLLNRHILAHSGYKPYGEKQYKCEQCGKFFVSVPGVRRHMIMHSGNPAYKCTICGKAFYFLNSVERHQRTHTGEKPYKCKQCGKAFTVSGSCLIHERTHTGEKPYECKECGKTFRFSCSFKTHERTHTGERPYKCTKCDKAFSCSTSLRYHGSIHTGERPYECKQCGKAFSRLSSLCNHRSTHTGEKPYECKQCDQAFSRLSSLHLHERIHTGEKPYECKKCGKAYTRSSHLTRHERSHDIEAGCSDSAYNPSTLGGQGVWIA
UniProt Q6ZN55: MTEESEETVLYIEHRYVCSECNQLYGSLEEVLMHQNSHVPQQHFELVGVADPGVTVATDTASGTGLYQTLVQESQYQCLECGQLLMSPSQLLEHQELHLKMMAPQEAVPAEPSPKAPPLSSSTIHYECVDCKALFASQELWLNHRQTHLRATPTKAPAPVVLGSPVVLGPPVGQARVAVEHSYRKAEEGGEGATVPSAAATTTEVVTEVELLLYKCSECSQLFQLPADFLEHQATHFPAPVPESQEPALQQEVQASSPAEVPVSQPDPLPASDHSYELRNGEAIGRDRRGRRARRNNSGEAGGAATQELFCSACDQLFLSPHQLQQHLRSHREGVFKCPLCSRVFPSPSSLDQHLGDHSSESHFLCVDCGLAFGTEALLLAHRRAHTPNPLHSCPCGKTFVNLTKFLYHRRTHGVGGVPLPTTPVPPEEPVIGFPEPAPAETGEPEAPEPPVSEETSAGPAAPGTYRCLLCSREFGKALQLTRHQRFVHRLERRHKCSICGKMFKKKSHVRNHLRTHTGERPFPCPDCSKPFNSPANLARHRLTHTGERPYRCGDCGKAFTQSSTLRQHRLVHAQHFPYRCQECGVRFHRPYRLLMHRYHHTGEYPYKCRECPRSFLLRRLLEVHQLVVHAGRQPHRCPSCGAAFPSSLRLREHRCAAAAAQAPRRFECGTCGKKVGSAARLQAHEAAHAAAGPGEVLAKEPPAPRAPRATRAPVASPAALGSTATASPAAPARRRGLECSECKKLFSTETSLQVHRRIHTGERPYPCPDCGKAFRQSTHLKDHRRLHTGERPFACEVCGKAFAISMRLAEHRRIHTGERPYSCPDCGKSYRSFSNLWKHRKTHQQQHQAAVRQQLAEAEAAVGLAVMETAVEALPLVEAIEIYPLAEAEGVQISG
UniProt Q8NF64: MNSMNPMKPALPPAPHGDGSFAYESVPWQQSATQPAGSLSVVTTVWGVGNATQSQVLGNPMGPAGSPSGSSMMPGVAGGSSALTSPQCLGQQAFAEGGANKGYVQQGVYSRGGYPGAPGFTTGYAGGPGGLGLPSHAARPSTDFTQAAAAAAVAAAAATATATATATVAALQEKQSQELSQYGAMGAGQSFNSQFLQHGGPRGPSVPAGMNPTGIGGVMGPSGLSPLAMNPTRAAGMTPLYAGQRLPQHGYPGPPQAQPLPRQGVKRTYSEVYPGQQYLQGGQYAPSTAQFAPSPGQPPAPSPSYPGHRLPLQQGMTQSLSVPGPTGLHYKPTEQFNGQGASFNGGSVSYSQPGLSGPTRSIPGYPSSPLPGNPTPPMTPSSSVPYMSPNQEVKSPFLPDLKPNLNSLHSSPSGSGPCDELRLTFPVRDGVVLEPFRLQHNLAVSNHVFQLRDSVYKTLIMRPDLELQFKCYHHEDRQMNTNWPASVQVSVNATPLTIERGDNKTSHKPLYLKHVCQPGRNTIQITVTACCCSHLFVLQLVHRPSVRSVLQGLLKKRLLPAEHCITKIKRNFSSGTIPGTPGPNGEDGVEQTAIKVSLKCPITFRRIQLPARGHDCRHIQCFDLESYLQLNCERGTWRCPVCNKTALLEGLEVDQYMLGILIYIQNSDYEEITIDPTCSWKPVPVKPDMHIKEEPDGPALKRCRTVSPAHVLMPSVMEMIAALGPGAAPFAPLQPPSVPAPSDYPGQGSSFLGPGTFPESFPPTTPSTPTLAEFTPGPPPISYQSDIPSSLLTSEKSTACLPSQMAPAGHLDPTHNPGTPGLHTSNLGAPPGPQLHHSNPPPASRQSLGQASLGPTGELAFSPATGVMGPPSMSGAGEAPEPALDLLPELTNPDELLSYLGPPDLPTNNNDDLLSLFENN
UniProt Q15649: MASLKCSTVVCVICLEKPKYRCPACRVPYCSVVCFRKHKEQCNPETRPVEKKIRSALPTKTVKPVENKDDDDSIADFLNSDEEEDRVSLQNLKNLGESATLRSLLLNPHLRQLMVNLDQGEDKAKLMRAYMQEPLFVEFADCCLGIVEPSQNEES
UniProt Q03936: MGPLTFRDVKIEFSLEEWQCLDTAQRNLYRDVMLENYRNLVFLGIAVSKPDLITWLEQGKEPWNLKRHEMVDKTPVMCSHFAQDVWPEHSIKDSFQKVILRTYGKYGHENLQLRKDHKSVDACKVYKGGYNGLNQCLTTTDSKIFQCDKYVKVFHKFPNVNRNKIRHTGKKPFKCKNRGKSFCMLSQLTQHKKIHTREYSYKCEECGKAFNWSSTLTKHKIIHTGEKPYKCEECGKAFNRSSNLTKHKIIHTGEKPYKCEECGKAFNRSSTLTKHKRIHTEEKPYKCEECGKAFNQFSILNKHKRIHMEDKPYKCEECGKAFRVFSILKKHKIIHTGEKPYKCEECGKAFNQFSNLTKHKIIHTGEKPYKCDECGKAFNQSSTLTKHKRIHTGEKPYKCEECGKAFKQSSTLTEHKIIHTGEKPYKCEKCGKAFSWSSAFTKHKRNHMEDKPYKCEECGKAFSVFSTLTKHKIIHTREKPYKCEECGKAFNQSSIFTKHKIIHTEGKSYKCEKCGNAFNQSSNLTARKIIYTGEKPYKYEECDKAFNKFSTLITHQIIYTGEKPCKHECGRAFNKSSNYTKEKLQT
UniProt Q8IYN0: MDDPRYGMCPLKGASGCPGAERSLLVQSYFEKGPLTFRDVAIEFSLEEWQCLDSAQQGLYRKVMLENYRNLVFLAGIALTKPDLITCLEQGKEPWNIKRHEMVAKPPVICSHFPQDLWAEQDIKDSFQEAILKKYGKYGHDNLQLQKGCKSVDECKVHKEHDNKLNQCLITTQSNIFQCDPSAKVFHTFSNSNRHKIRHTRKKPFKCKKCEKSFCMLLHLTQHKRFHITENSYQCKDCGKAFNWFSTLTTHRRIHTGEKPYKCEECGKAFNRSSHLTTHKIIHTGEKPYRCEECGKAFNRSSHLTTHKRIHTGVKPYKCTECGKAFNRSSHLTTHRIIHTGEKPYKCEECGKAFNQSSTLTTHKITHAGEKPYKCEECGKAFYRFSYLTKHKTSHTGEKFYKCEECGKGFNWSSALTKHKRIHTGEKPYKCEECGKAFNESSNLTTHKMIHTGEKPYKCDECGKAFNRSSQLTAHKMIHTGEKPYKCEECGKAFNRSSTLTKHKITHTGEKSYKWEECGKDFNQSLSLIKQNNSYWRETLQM
UniProt Q8TAU3: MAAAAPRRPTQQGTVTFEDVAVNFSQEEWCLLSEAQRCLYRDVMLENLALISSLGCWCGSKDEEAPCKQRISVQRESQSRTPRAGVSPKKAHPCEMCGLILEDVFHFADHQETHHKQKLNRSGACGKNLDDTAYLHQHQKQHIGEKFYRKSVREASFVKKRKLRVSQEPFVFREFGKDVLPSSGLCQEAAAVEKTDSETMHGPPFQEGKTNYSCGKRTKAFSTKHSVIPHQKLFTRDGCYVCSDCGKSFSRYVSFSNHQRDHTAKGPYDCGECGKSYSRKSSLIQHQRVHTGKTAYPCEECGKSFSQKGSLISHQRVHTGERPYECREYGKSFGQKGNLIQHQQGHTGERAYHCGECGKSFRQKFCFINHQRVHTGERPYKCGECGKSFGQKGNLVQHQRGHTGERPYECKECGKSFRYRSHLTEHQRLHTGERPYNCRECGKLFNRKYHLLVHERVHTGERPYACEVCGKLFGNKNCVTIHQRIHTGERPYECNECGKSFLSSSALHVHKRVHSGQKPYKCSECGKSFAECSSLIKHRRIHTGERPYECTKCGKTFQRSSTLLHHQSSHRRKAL
UniProt Q2TB10: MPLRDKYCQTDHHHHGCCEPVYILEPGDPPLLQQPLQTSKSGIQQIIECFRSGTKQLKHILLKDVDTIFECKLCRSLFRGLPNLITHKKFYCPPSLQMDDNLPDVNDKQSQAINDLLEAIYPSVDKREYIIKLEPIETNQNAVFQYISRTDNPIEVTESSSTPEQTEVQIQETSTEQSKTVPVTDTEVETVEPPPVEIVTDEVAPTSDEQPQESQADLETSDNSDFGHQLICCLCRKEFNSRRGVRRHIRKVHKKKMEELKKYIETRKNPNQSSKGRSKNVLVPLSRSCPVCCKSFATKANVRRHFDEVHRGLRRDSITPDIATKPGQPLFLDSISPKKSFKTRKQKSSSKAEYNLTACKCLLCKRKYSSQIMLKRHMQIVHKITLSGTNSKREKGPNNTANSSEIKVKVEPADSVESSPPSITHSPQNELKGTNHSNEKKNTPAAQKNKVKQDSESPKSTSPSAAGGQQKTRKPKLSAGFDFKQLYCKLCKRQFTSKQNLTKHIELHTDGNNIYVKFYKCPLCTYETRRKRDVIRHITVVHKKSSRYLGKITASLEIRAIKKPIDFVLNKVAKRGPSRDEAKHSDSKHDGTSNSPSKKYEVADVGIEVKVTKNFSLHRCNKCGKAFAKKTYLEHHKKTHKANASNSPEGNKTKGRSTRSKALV
UniProt Q96K58: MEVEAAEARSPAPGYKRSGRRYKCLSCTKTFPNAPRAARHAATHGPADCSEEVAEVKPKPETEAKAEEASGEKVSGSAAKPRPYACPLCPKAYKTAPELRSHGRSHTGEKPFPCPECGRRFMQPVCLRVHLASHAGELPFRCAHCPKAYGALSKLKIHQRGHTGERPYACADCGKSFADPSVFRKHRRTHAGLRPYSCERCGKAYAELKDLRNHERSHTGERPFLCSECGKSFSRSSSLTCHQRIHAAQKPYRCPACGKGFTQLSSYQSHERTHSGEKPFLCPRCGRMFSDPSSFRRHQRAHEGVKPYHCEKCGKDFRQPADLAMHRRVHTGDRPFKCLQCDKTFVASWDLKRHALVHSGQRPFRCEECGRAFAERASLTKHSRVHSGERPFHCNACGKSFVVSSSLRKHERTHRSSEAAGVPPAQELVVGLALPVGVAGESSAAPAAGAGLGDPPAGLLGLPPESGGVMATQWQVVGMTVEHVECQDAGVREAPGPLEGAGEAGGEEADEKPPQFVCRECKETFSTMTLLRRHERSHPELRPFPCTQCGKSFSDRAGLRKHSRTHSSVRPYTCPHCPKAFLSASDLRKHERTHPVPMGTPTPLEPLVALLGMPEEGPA
UniProt O75467: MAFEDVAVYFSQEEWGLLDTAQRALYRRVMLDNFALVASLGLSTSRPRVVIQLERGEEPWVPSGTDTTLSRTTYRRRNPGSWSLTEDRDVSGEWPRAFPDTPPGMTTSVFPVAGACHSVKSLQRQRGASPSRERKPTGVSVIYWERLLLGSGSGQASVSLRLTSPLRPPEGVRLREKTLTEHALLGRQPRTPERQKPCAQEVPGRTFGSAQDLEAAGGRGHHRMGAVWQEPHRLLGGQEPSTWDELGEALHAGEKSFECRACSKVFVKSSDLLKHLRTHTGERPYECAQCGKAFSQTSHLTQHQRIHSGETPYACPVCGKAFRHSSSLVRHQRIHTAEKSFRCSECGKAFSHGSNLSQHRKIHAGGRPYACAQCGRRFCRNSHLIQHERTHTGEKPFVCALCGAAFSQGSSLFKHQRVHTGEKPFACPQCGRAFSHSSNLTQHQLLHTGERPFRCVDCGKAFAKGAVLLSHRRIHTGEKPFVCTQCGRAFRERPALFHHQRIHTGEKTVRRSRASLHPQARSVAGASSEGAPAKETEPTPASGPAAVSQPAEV
UniProt Q15776: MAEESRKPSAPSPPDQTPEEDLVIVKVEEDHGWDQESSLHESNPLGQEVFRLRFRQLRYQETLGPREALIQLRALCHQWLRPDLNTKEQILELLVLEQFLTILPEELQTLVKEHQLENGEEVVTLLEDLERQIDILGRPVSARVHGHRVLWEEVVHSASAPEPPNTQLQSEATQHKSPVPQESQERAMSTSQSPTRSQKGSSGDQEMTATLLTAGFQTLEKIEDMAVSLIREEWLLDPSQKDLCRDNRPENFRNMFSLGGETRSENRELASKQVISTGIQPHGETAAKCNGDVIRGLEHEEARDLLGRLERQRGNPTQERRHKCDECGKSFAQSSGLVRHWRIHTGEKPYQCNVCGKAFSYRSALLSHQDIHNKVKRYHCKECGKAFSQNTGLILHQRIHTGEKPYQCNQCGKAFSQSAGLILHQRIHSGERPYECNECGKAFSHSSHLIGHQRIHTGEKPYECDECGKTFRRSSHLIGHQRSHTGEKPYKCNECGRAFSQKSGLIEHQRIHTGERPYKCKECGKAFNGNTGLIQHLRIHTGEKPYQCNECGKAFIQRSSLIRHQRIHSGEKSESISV

[2] = compound: CC(=O)c1cnc2ccc(-c3cc(Cl)c(O)c(Cl)c3)nc2c1N[C@H]1CC[C@H](CN(C)C)CC1
Procedure, shortened: as §1

[3] = compound: CC(C)(C)Cn1c(N)nc2ccc(-c3[nH]c(C(C)(C)C)nc3-c3ccc(F)cc3)nc21 [ralimetinib]
Procedure, shortened: as §1

[4] = compound: CC(C)(O)CC(=O)NCCn1ccc2ncnc(Nc3ccc(Oc4cccc(C(F)(F)F)c4)c(Cl)c3)c21
Procedure, shortened: as §1

[5] = compound: CC(C)C1=C2N=C(C=C(N2N=C1)NCC3=CC=CC=C3)NCCCCCCN
Procedure, shortened: as §1

[6] = compound: CC1=C(C(CC(=O)N1)C2=CC=C(C=C2)C(F)(F)F)C(=O)NC3=C(C=C4C(=C3)C=NN4)F
Procedure, shortened: as §1

[7] = compound: CC1=C(C2=C(C=C1)C(=O)C3=CC=CC=C3N2CCCN)C
Procedure, shortened: as §1

[8] = compound: CC1=C(C=C(C=C1)NC(=O)C2=CC(=CC=C2)C(C)(C)C#N)NC3=CC4=C(C=C3)N=CN(C4=O)C
Procedure, shortened: as §1

[9] = compound: CC1=C(C=C(C=C1)NC(=O)C2=CC(=CC=C2)N(C)C)NC(=O)C3=CC=C(C=C3)O
Procedure, shortened: as §1

[10] = compound: CC1=CC=C(C=C1)SC2=C3C=C(SC3=CN=C2)C(=O)N
Procedure, shortened: as §1

[11] = compound: CCCS(=O)(=O)Nc1ccc(F)c(C(=O)c2c[nH]c3ncc(Cl)cc23)c1F
Procedure, shortened: as §1

[12] = compound: CCN(CCCOc1ccc2c(Nc3cc(CC(=O)Nc4cccc(F)c4)[nH]n3)ncnc2c1)CCOP(=O)(O)O [barasertib]
Procedure, shortened: as §1

[13] = compound: CC[C@@H]1C(=O)N(C)c2cnc(Nc3ccc(C(=O)N[C@H]4CC[C@H](N5CCN(CC6CC6)CC5)CC4)cc3OC)nc2N1C(C)C [volasertib]
Procedure, shortened: as §1

[14] = compound: CCn1c(C(=O)N(C2CC2)C2CC2)cc2c3c(ncn3C)c(Nc3cc(C)n(C)n3)nc21
Procedure, shortened: as §1

[15] = compound: CCn1cc(-c2ccnc3[nH]c(-c4cccc(CN(C)C)c4)cc23)c(-c2ccc(NC(=O)N(C)C)cc2)n1
Procedure, shortened: as §1

[16] = compound: CN1CCC(CNc2ccc3ncc(-c4cccc(OC(F)(F)F)c4)n3n2)CC1
Procedure, shortened: as §1

[17] = compound: CN1CCN(CCOc2cc(OC3CCOCC3)c3c(Nc4c(Cl)ccc5c4OCO5)ncnc3c2)CC1 [saracatinib]
Procedure, shortened: as §1

[18] = compound: CN1CCN(c2nc(C3=C(c4c[nH]c5ccccc45)C(=O)NC3=O)c3ccccc3n2)CC1 [sotrastaurin]
Procedure, shortened: as §1

[19] = compound: CC[C@@H]1C(=O)N(C)c2cnc(Nc3ccc(C(=O)NC4CCN(C)CC4)cc3OC)nc2N1C1CCCC1
Procedure, shortened: as §1

[20] = compound: CCCS(=O)(=O)Nc1ccc(F)c(C(=O)c2c[nH]c3ncc(-c4ccc(Cl)cc4)cc23)c1F [vemurafenib]
Procedure, shortened: as §1

Target | log2 fold change [1] | log2 fold change [2] | log2 fold change [3] | log2 fold change [4] | log2 fold change [5] | log2 fold change [6] | log2 fold change [7] | log2 fold change [8] | log2 fold change [9] | log2 fold change [10] | log2 fold change [11] | log2 fold change [12] | log2 fold change [13] | log2 fold change [14] | log2 fold change [15] | log2 fold change [16] | log2 fold change [17] | log2 fold change [18] | log2 fold change [19] | log2 fold change [20]
ZNF669 (UniProt Q96BR6) | inactive: 0.074 | inactive: 0.107 | inactive: 0.004 | inactive: -0.125 | inactive: -0.09 | inactive: 0.022 | inactive: -0.025 | inactive: -0.038 | inactive: 0.067 | inactive: 0.063 | inactive: -0.157 | inactive: 0.134 | inactive: -0.107 | inactive: 0.039 | inactive: -0.111 | inactive: -0.005 | inactive: -0.061 | inactive: -0.165 |  | 
ZNF574 isoform 2 (UniProt Q6ZN55) | inactive: 0.095 | inactive: -0.061 | inactive: -0.165 | inactive: -0.103 | inactive: -0.004 | inactive: 0.071 |  | inactive: -0.106 | inactive: -0.07 | inactive: 0.088 | inactive: -0.031 | inactive: 0.062 | inactive: -0.055 | inactive: 0.029 | inactive: -0.128 | inactive: -0.002 |  | inactive: 0.059 | inactive: 0.226 | 
ZMIZ2 (UniProt Q8NF64) | inactive: 0.114 | inactive: 0.071 |  |  | inactive: -0.026 | inactive: 0.012 | inactive: -0.123 | inactive: 0 |  | inactive: 0.011 | inactive: -0.215 | inactive: 0.024 | inactive: 0.142 |  | inactive: -0.008 | inactive: 0.004 | inactive: 0.141 | inactive: 0.041 | inactive: 0.061 | inactive: -0.01
ZNRF2 (UniProt Q8NHG8) | inactive: 0.084 | inactive: 0.053 | inactive: -0.028 | inactive: 0.093 |  | inactive: 0.047 |  | inactive: 0.202 | inactive: 0.04 | inactive: -0.062 | inactive: 0.019 | inactive: 0 | inactive: -0.012 | inactive: -0.012 | inactive: 0.224 | inactive: -0.097 |  | inactive: -0.142 | inactive: 0.059 | inactive: -0.132
ZNHIT3 (UniProt Q15649) | inactive: 0.034 | inactive: -0.081 | inactive: 0.006 | inactive: -0.027 | inactive: -0.023 |  | inactive: -0.076 | inactive: 0.12 | inactive: -0.021 | inactive: -0.103 | inactive: 0.175 | inactive: -0.146 | inactive: 0.014 | inactive: 0.014 | inactive: 0.062 | inactive: 0 | inactive: 0.023 | inactive: -0.049 | inactive: 0.045 | inactive: -0.069
ZNF92 (UniProt Q03936) | inactive: -0.022 | inactive: 0.025 | inactive: 0.192 | inactive: 0.086 | inactive: -0.051 | inactive: -0.045 | inactive: 0 | inactive: -0.09 | inactive: -0.257 | inactive: 0.113 | inactive: -0.142 | inactive: 0.168 | inactive: -0.029 | inactive: -0.075 | inactive: 0 | inactive: -0.135 | inactive: -0.06 | inactive: -0.049 |  | inactive: 0.064
ZNF217 (UniProt O75362) | inactive: -0.033 | inactive: 0.053 | inactive: 0.017 | inactive: -0.014 | inactive: -0.061 | inactive: -0.005 | inactive: -0.022 | inactive: 0.002 | inactive: 0.025 | inactive: -0.031 | inactive: 0.019 | inactive: 0.047 | inactive: -0.021 | inactive: -0.028 | inactive: -0.021 | inactive: 0.076 | inactive: 0.013 | inactive: 0.052 | inactive: 0.099 | inactive: 0.043
ZMIZ1 (UniProt Q9ULJ6) | inactive: 0.04 | inactive: -0.022 | inactive: -0.007 | inactive: -0.095 | inactive: 0.012 | inactive: -0.013 | inactive: -0.026 | inactive: -0.048 | inactive: 0.016 | inactive: -0.081 | inactive: 0.002 | inactive: 0.044 | inactive: 0.004 | inactive: -0.004 | inactive: -0.198 | inactive: 0.086 | inactive: -0.011 | inactive: 0.016 | inactive: 0.01 | inactive: -0.014
ZMYM4 (UniProt Q5VZL5) | inactive: -0.079 | inactive: -0.004 | inactive: 0.055 | inactive: -0.025 | inactive: 0.051 | inactive: 0.026 | inactive: -0.089 | inactive: -0.011 | inactive: -0.012 | inactive: -0.001 | inactive: 0.003 | inactive: 0.126 | inactive: 0.041 | inactive: 0.033 | inactive: 0.013 | inactive: 0.029 | inactive: 0.023 | inactive: 0.043 | inactive: 0.013 | inactive: 0.008
ZNF512B (UniProt Q96KM6) |  | inactive: 0.018 | inactive: 0 | inactive: -0.042 |  |  |  |  | inactive: 0.048 | inactive: -0.027 | inactive: -0.015 |  | inactive: -0.051 | inactive: 0.001 |  |  |  |  |  | 
ZNF93 (UniProt P35789) |  | inactive: 0.081 | inactive: 0.091 | inactive: -0.048 | inactive: -0.186 | inactive: 0.099 | inactive: -0.013 | inactive: 0.025 | inactive: 0.002 | inactive: -0.053 | inactive: -0.018 |  | inactive: -0.078 | inactive: -0.02 |  |  | inactive: 0.075 | inactive: 0.085 | inactive: 0.001 | inactive: -0.024
ZNF100 (UniProt Q8IYN0) | inactive: 0.155 |  |  |  |  |  |  | inactive: 0.008 |  |  |  | inactive: -0.073 |  |  |  |  |  | inactive: -0.021 |  | 
ZNF687 (UniProt Q8N1G0) |  | inactive: -0.058 | inactive: 0.119 | inactive: -0.007 | inactive: -0.04 | inactive: -0.088 | inactive: -0.056 | inactive: 0.037 | inactive: 0.199 | inactive: -0.002 | inactive: 0.183 |  | inactive: 0.042 | inactive: 0.022 |  |  | inactive: -0.165 | inactive: 0.068 | inactive: 0.056 | 
ZNF525 (UniProt J3KR51) | inactive: -0.069 |  |  |  | inactive: -0.047 |  |  |  |  |  |  | inactive: 0.033 |  |  |  |  |  |  |  | inactive: 0.105
ZNF417 (UniProt Q8TAU3) | inactive: 0.026 |  |  |  |  |  |  |  |  |  |  | inactive: -0.08 |  |  |  |  |  |  |  | 
ZNF384 (UniProt Q8TF68) |  | inactive: -0.124 | inactive: -0.023 | inactive: -0.046 | inactive: 0.025 | inactive: -0.037 | inactive: -0.029 | inactive: 0.002 | inactive: 0.003 | inactive: 0.08 | inactive: 0.098 |  | inactive: -0.234 | inactive: 0.16 |  |  | inactive: 0.218 | inactive: 0.049 | inactive: 0.161 | 
ZNF358 (UniProt Q9NW07) |  | inactive: 0.085 |  |  | inactive: -0.007 |  |  |  |  | inactive: -0.057 | inactive: 0.052 |  | inactive: -0.085 |  |  |  |  |  |  | 
ZNF785 (UniProt A8K8V0) |  | inactive: 0.239 |  |  |  |  | inactive: 0.22 |  |  | inactive: 0.083 | inactive: 0.035 |  | inactive: -0.016 |  |  |  | inactive: 0 |  |  | 
ZNF800 (UniProt Q2TB10) |  | inactive: 0 |  |  | inactive: -0.175 |  | inactive: -0.11 |  |  | inactive: 0.147 | inactive: 0.102 |  | inactive: -0.078 |  |  |  | inactive: 0.052 |  |  | 
ZNF668 isoform 2 (UniProt Q96K58) |  | inactive: 0.034 |  |  | inactive: -0.111 | inactive: 0.051 |  | inactive: -0.081 |  | inactive: -0.048 | inactive: 0.013 |  | inactive: -0.018 |  |  |  |  | inactive: -0.053 |  | 
ZNF324 (UniProt O75467) |  | inactive: 0.022 | inactive: -0.082 | inactive: -0.035 |  | inactive: 0.033 |  | inactive: 0.105 | inactive: 0.049 | inactive: -0.037 | inactive: 0.058 |  | inactive: -0.167 | inactive: -0.065 | inactive: 0.026 | inactive: 0.045 |  | inactive: 0.091 |  | 
ZKSCAN8 (UniProt Q15776) |  | active: 0.514 | inactive: -0.021 | inactive: -0.002 | inactive: 0.229 | inactive: 0.098 | inactive: 0.008 | inactive: -0.008 | inactive: 0.04 | inactive: -0.054 | inactive: -0.173 |  | inactive: -0.17 | inactive: -0.001 |  |  | inactive: 0.028 | inactive: 0.027 | inactive: -0.019 | inactive: 0.049

An excerpt from above, limited to log2 fold change [11] and log2 fold change [5].
Target | log2 fold change [11] | log2 fold change [5]
ZNF217 (UniProt O75362) | inactive: 0.019 | inactive: -0.061
ZMIZ1 (UniProt Q9ULJ6) | inactive: 0.002 | inactive: 0.012

From the supplement of paper PMC10849652
